Measurements reported in PubChem BioAssay AID1224830 (NIAID, 2016).
The whole screen tested about 18,000 reagents; shown is a random part of them. In the full data, about 2,900 (16%) were called active. 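Calls are made per well; low scores hint the gene aids the LPS response, high scores that it dampens it.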 The numbers tell different reagents against one gene apart. Repeated entries: four replicate wells of each siRNA pool.

Screen: 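Host factors that control LPS-induced TNF expression in human macrophages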 (primary screen)
Cells: human THP-1 monocytic leukaemia cells, TNF dual-luciferase reporter clone, PMA-differentiated to macrophage-like cells
Knock-down reagent: siRNA pool against human genes, 50 nM
Time to read-out: LPS for 4 h, given about 3 days after siRNA transfection
Challenge: bacterial LPS (TLR4 ligand), 10 ng/ml
Read-out: 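Ratio of firefly to renilla light, scaled to the plate median and expressed as a robust z-score per replicate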
Reading the numbers: TNF reporter robust z-score: higher = stronger TNF reporter response to LPS
Hit rule: 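Each well counts as active if its z-score is over 2.8 or under -1.5; controls are left without a call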

| gene symbol | pool no. | TNF reporter robust z-score | Outcome |
| --- | --- | --- | --- |
| HSD17B1 | 1 | 0.63 | inactive |
| HSD17B1 | 1 | 0.49 | inactive |
| HSD17B1 | 1 | 0.46 | inactive |
| HSD17B1 | 1 | 0.55 | inactive |
| NOSIP | 1 | -0.83 | inactive |
| NOSIP | 1 | -1.91 | active |
| NOSIP | 1 | -1.78 | active |
| NOSIP | 1 | 0.33 | inactive |
| FAM110D | 1 | 1.24 | inactive |
| FAM110D | 1 | 0.17 | inactive |
| FAM110D | 1 | 0.38 | inactive |
| FAM110D | 1 | 0.69 | inactive |
| RLN3 | 1 | -0.3 | inactive |
| RLN3 | 1 | -0.61 | inactive |
| RLN3 | 1 | -1.46 | inactive |
| RLN3 | 1 | -1.06 | inactive |
| MROH7 | 1 | -1.44 | inactive |
| MROH7 | 1 | -1.23 | inactive |
| MROH7 | 1 | -0.39 | inactive |
| MROH7 | 1 | -1.28 | inactive |
| HMGB1P1 | 1 | 2.5 | inactive |
| HMGB1P1 | 1 | 4.02 | active |
| HMGB1P1 | 1 | 0.9 | inactive |
| HMGB1P1 | 1 | 4.6 | active |
| EXPH5 | 1 | -1.47 | inactive |
| EXPH5 | 1 | -0.53 | inactive |
| EXPH5 | 1 | -0.78 | inactive |
| EXPH5 | 1 | -0.67 | inactive |
| GTF2A1L | 1 | 0.1 | inactive |
| GTF2A1L | 1 | 2.8 | active |
| GTF2A1L | 1 | 0.02 | inactive |
| GTF2A1L | 1 | 0.35 | inactive |
| PPIL2 | 1 | 3.95 | active |
| PPIL2 | 1 | -1.98 | active |
| PPIL2 | 1 | -0.79 | inactive |
| PPIL2 | 1 | 0.38 | inactive |
| VARS2 | 1 | 0.67 | inactive |
| VARS2 | 1 | -0.33 | inactive |
| VARS2 | 1 | 1.59 | inactive |
| VARS2 | 1 | 1.67 | inactive |
| CA13 | 1 | 2.75 | inactive |
| CA13 | 1 | -0.2 | inactive |
| CA13 | 1 | 0.03 | inactive |
| CA13 | 1 | -0.17 | inactive |
| SLC37A1 | 1 | -0.91 | inactive |
| SLC37A1 | 1 | 0.34 | inactive |
| SLC37A1 | 1 | -0.67 | inactive |
| SLC37A1 | 1 | 1.45 | inactive |
| UGT2B28 | 1 | -0.14 | inactive |
| UGT2B28 | 1 | 0.75 | inactive |
| UGT2B28 | 1 | 1.58 | inactive |
| UGT2B28 | 1 | 1.31 | inactive |
| PKIB | 1 | 0.91 | inactive |
| PKIB | 1 | 1.7 | inactive |
| PKIB | 1 | 1.4 | inactive |
| PKIB | 1 | 1.13 | inactive |
| SHF | 1 | -1.01 | inactive |
| SHF | 1 | -0.47 | inactive |
| SHF | 1 | -0.43 | inactive |
| SHF | 1 | -0.67 | inactive |
| SMN1 | 1 | -0.35 | inactive |
| SMN1 | 1 | 0.26 | inactive |
| SMN1 | 1 | 0.36 | inactive |
| SMN1 | 1 | 0.49 | inactive |
| KIR3DS1 | 1 | 2.87 | active |
| KIR3DS1 | 1 | 1.08 | inactive |
| KIR3DS1 | 1 | 2.85 | active |
| KIR3DS1 | 1 | 1.29 | inactive |
| GPR161 | 1 | 0.32 | inactive |
| GPR161 | 1 | 0.93 | inactive |
| GPR161 | 1 | 0.34 | inactive |
| GPR161 | 1 | 0.56 | inactive |
| ADGRL3 | 1 | -0.17 | inactive |
| ADGRL3 | 1 | 0.64 | inactive |
| ADGRL3 | 1 | 0.02 | inactive |
| ADGRL3 | 1 | -0.28 | inactive |
| NECAB2 | 1 | -0.1 | inactive |
| NECAB2 | 1 | -0.51 | inactive |
| NECAB2 | 1 | -0.55 | inactive |
| NECAB2 | 1 | -0.17 | inactive |
| DNM1L | 1 | -1.53 | active |
| DNM1L | 1 | -1.64 | active |
| DNM1L | 1 | -0.7 | inactive |
| DNM1L | 1 | -1.56 | active |
| ERCC6L2 | 1 | -0.64 | inactive |
| ERCC6L2 | 1 | -0.06 | inactive |
| ERCC6L2 | 1 | -0.49 | inactive |
| ERCC6L2 | 1 | -0.12 | inactive |
| ERCC6L2 | 2 | -0.28 | inactive |
| ERCC6L2 | 2 | -0.87 | inactive |
| ERCC6L2 | 2 | 0.02 | inactive |
| ERCC6L2 | 2 | 0.68 | inactive |
| COG7 | 1 | 0.12 | inactive |
| COG7 | 1 | -0.58 | inactive |
| COG7 | 1 | -1.05 | inactive |
| COG7 | 1 | -0.04 | inactive |
| ADAM7 | 1 | 0.93 | inactive |
| ADAM7 | 1 | -0.26 | inactive |
| ADAM7 | 1 | -0.03 | inactive |
| ADAM7 | 1 | 0.77 | inactive |
| LEFTY2 | 1 | 0.54 | inactive |
| LEFTY2 | 1 | 1.09 | inactive |
| LEFTY2 | 1 | 0.23 | inactive |
| LEFTY2 | 1 | 0.25 | inactive |
| TET1 | 1 | 0.69 | inactive |
| TET1 | 1 | 0.96 | inactive |
| TET1 | 1 | 0.7 | inactive |
| TET1 | 1 | 0.67 | inactive |
| PGM1 | 1 | 1.63 | inactive |
| PGM1 | 1 | 0.02 | inactive |
| PGM1 | 1 | -0.7 | inactive |
| PGM1 | 1 | -0.23 | inactive |

Already shown: 12 of the entries above.
| gene symbol | pool no. | TNF reporter robust z-score | Outcome |
| --- | --- | --- | --- |
| MROH7 | 1 | -0.39 | inactive |
| MROH7 | 1 | -1.28 | inactive |
| HMGB1P1 | 1 | 2.5 | inactive |
| HMGB1P1 | 1 | 4.02 | active |
| HMGB1P1 | 1 | 0.9 | inactive |
| HMGB1P1 | 1 | 4.6 | active |
| EXPH5 | 1 | -1.47 | inactive |
| EXPH5 | 1 | -0.53 | inactive |
| EXPH5 | 1 | -0.78 | inactive |
| EXPH5 | 1 | -0.67 | inactive |
| GTF2A1L | 1 | 0.1 | inactive |
| GTF2A1L | 1 | 2.8 | active |
